This experiment has as its system Salmonella enterica serovar Typhimurium SL1344. Briefly: bacterial growth OD600 after 18 h with compound and polymyxin B; higher = more bacterial growth (less inhibition). As to conditions: 50 µM, Mueller-Hinton broth.

The other results are listed elsewhere or left out. These are raw signals, not scaled to a control.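 First-pass screen: polymyxin B was added at a level that permeabilizes the Salmonella outer membrane while sparing the inner membrane. DMSO wells, with and without polymyxin B, defined maximum growth. Because plates differed from one another, each plate's data were ranked separately and the compounds with the lowest OD600 were carried forward as hits.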

As to `CCN1CCC(C(=O)N(CC)CC2CCCN(CCc3cccc(F)c3)C2)CC1` (centres undefined), the “bacterial growth OD600” value (polymyxin B 1 µg/mL) was 0.95.
Take `Fc1ccccc1-c1cnnc(NCC2(N3CCOCC3)CCCCCC2)n1`: the “bacterial growth OD600” value (polymyxin B 1 µg/mL) came to 1.02.
Take `CN(Cc1ccccc1)c1ncccc1CNC(=O)Nc1ccccc1F`: for the setting “polymyxin B 0.75 µg/mL”, the “bacterial growth OD600” value stood at 0.133.
As to `CC(=O)c1cc(CN2CCC(CCC(=O)Nc3ccccc3Cl)CC2)cs1`, the “bacterial growth OD600” value (polymyxin B 1 µg/mL) was found to be 0.735.
With `COCCC(=O)N1CCCC(CCc2cccc(OC)c2)C1` (centres undefined), the “bacterial growth OD600” value (polymyxin B 0.75 µg/mL) came to 0.8.
As for `O=C(NCc1ccccn1)C1CCN(C2CCN(C3CCCCCC3)CC2)CC1`, the “bacterial growth OD600” value (polymyxin B 1 µg/mL) worked out at 0.769.
On the same count and under the same terms, as for `Cc1ccc(N2CCN(C(=O)c3cn(Cc4ccccc4F)nn3)CC2)cc1`, the figure is 0.911.
Take `CN(CCC1CCCCO1)C(=O)CC1(c2ccccc2Cl)CC(=O)N(C2CCCC2)C1=O` (centres undefined): the “bacterial growth OD600” value (polymyxin B 0.75 µg/mL) came out at 0.002.
Same read-out and setting: with `c1ccc(CC2CN(Cc3ccc4c(c3)OCCO4)CCO2)cc1` (centres undefined) the figure was 0.786.
As to `COc1ccc(-c2ccccc2NC(=O)C2CCCN2C(=O)CC(C)(C)C)cc1` (centres undefined), the “bacterial growth OD600” value (polymyxin B 1 µg/mL) is 1.04.
As for `COc1ccccc1NC(=O)Nc1ccnn1C1CCN(C(=O)C2CCCCN2C)CC1` (centres undefined), under “polymyxin B 0.75 µg/mL”, the “bacterial growth OD600” value worked out at 0.886.
In the case of `CCCCN(C)C(=O)CCC1(Cc2ccc(F)cc2)CCC(=O)N1` (centres undefined), the “bacterial growth OD600” value (polymyxin B 0.75 µg/mL) is 0.946.
Turning to `O=C(NCc1cccnc1)C1CCCN(C2CCN(Cc3ccccc3)CC2)C1` (centres undefined), the “bacterial growth OD600” value (polymyxin B 0.75 µg/mL) came out at 0.832.
For `COc1ccc(C(=O)C2CCCN(C(=O)C#Cc3ccccc3)C2)cc1OC` (centres undefined), where the note is “polymyxin B 1 µg/mL”, the “bacterial growth OD600” value amounted to 0.851.
Take `CCn1ccnc1CN1CCC(C2CCN(CC(C)C)CC2)C1` (centres undefined): the “bacterial growth OD600” value (polymyxin B 0.75 µg/mL) turned out to be 0.808.
Same read-out and setting: with `Cc1cnc(C)c(-c2cc(F)cc3c2OC(CNC(=O)CCN(C)C2CCS(=O)(=O)C2)C3)n1` (centres undefined) the figure was 0.825.
On to `COc1ccc(NC2CCCN(C(=O)C3=NN(C)C(=O)CC3)C2)cc1OC` (centres undefined), for which the “bacterial growth OD600” value (polymyxin B 1 µg/mL) is 0.893.
`CC(C)CCN1CCC(N2CCCC(C(=O)NCc3ccccc3)C2)CC1` (centres undefined): the “bacterial growth OD600” value (polymyxin B 0.75 µg/mL) came out at 0.807.
The same measure, in the same setting: with `COc1ccc(-c2nc(CN(C)C(C)c3cccs3)c(C)o2)c(OC)c1C` (centres undefined) the figure was 0.595.
